Results: patent US20040096484A1, “Antioxidant-containing wipes and absorbent products for improving skin health” (priority 2002, published 2004)
Some results were stated once for a whole list of compounds, not compound by compound. For at least one compound, name, drawing or mass did not settle the structure.

Test: AST Antioxidant Status Test (Randox Total Antioxidant Status Kit)

## O=C(O[C@@H]1Cc2c(O)cc(O)cc2O[C@@H]1c1cc(O)c(O)c(O)c1)c1cc(O)c(O)c(O)c1 [epigallocatechin gallate]
  antioxidant activity at three minutes: at least 25%

## O=C(O[C@@H]1Cc2c(O)cc(O)cc2O[C@@H]1c1ccc(O)c(O)c1)c1cc(O)c(O)c(O)c1 [epicatechin gallate]
  antioxidant activity at three minutes: at least 25%
